Experimental data published in patent US20070093415A1.
No constants are given. Whether binding was seen depends on the method and setting. Some entries that bind do so weakly or less than the wild type.

By UniProt entry, the sequences of proteins in these tests, tags left out. Residues count along the entry.
UniProt P05067, residues 672-713: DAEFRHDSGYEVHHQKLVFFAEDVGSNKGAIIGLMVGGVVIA

How the values were obtained:
[1] = biological target: Aβ amyloid in amyloid plaques of Alzheimer's disease brain (human) (UniProt P05067); test: staining of AD brain sections
[2] = biological target: Aβ amyloid in amyloid plaques of Alzheimer's disease brain (human) (UniProt P05067); test: staining of AD brain sections, FIG. 6
[3] = biological target: Aβ amyloid in amyloid plaques of Alzheimer's disease brain (human) (UniProt P05067); test: staining of AD brain sections with biotin peptide and streptavidin-alkaline phosphatase

Measured: binding

AECDWGKGGRWRLWPGASGKTEACGP (N-terminal biotin; the flanking cysteines can form a disulfide bond) [Biotin-…]
binds: all assays above
